Patent US5104884A, “Triazolyl quinoline derivatives” (Alkaloida Vegyeszeti Gyar, priority 1985, dated 1992)

Assay: ulcerogenic effect (stomach haemorrhage and ulcers)
Type: in vivo, male Wistar rats
Conditions: rat, po, acute test, rats, five hours after treatment, read-out: UD50
Protocol: The analgesic effect of the compounds of the present invention is tested according to the hot (56° C.) plate test on male and female CFLP strain mice weighing 18-22 g. The point of time of the appearence of the deterring reaction Abwehrreaktion is determined and related to the latent time measured on the control group Woolfe and McDonald 1944. At least 10 animals are used per dose. The test compounds are administered orally 60 minutes before the test in the form of a 1% methyl cellulose suspension. The test is carried out on separated male Wistar rats weighing 180-210 g and fasted for 16 hours. The test compounds are suspended in 1% carboxy methyl cellulose and administered orally in a dose of 10 ml/kg.
Five hours after treatment the animals are sacrificed and their stomachs are placed into a 2.5% formaline solution. The number and rate of punctiform haemorrhage and ulcers is evaluated according to the following scale:
1=some punctiform haemorrhage (<10);
2=diffuse haemorrhage or small ulcer (<2 mm);
3=two or more minor small ulcer (<2 mm);
4=one or more large ulcer (>2 mm).

`COc1ccc2cc([C@H](C)C(=O)O)ccc2c1` [Naproxen, reference compound] gave a TD50 at 5 h of 20.8 mg/kg.
